Test results as given in PubChem BioAssay AID504594 (Broad Institute, 2011).
Several values for one entry are separate records, joined by “and”; a condition that tells them apart may be missing. Equal values may be shown once. Screen size: about 2,000 compounds; fewer than 10 were called active.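 Rule for the calls: active = growth inhibition of at least 75% in every replicate, which also brings the mean inhibition to 75% or more; inconclusive = mean inhibition 75% or more but some replicate under 75%; inactive = the rest.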 The list shows a part of the results.

experiment: reduced viability of yeast carrying PfHsp90 – S. cerevisiae, BacTiter-Glo luminescence, antimalarial PfHsp90 inhibitor project, primary screen (AID 504594);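 note: 0% = DMSO neutral control wells and 100% = 20 µM radicicol control wells; higher value means stronger growth inhibition because the sign is flipped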; details: S. cerevisiae expressing PfHsp90, BacTiter-Glo growth, 48 h; at 9.4 µM; stronger effect = higher value

Row | SMILES | growth inhibition
1 | Cc1ccc2[nH]c(=O)c(Cc3ccccc3)c(O)c2c1 | inactive: 0.831%
2 | CCOC(=O)N1CCC(=C2c3ccc(Cl)cc3CCc3cccnc32)CC1 | inactive: -26.4%
3 | CC1CCN(C(=O)Oc2ccccc2)CC1 | inactive: 5.73%
4 | COCCCC/C(=N\OCCN)c1ccc(C(F)(F)F)cc1 | inactive: -5.7%
5 | C[C@]12CCC(=O)C=C1CC[C@@H]1[C@@H]2C(=O)C[C@@]2(C)[C@H]1CC[C@]2(O)C(=O)CO | inactive: -9.46%
6 | O=C(O)CCSc1nc2ccccc2s1 | inactive: -10.8%
7 | CC(C)(C)C(=O)Nc1cccc(OC(F)(F)C(F)Cl)c1 (centres undefined) | inactive: 11.9%
8 | Cc1ccc(N(CC2=NCCN2)c2cccc(O)c2)cc1 | inactive: -5.77% and inactive: -5.84% and inactive: 0.016%
9 | O=Cc1ccc(OC(=O)c2cccnc2)cc1 | inactive: -0.91%
10 | COc1ccccc1C1(CC(=O)N2CCCCC2)CCOC(C(C)C)C1 (centres undefined) | inactive: 14.4%
11 | O=C(CN1CCN(Cc2ccccc2)CC1)N1CCCc2c1c(=O)oc1ccc(O)cc21 | inactive: -7.45%
12 | COc1ccc(N2CCN(C(=S)NCc3ccccc3)CC2)cc1 | inactive: -6.04%
13 | N#Cc1cc2c([nH]c1=O)CCCC2 | inactive: 8.49%
14 | Cn1c(=O)[nH]c(=O)c2c1ncn2CCN1CCOCC1 | inactive: -13.7%
15 | O=C(NCCO)c1ccc(Cl)c(Cl)c1 | inactive: -11.9%
16 | COc1ccc(C=NCC2COc3ccccc3O2)cc1OC (centres undefined) | inactive: 13.6%
17 | CN(C)c1ccc(O)c2c1CC1CC3[C@@H](N(C)C)C(=O)C(C(N)=O)=C(O)[C@]3(O)C(=O)C1=C2O (some centres undefined) | inactive: -9.48%
18 | CC(=O)OCC(=O)[C@H]1CC[C@H]2[C@@H]3CC=C4C[C@@H](O)CC[C@]4(C)[C@H]3CC[C@]12C | inactive: 29.2%
19 | O=C(O)C1Cc2ccccc2CN1S(=O)(=O)c1ccccc1 (centres undefined) | inactive: 3.53%
20 | O=C(Nc1ccc(C(=O)NC2CCCCC2)cc1)c1cccnc1 | inactive: -6.79%
21 | c1ccc(CC2=NCCN2)cc1 | inactive: -12.3%
22 | CCOC(=O)C(=O)N1CCN(c2ccccc2OC)CC1 | inactive: 3.55%
23 | CC(C)(Oc1ccc(CCNC(=O)c2ccc(Cl)cc2)cc1)C(=O)O | inactive: 2.38%
24 | OCCN1CCN(CCCN2c3ccccc3Sc3ccc(C(F)(F)F)cc32)CC1 | inactive: 5.63%
25 | O=C(NC1CCCCC1)N1CCc2[nH]c3ccccc3c2C1 | inactive: 1.47%

A few values from above.
O=C(Nc1ccc(C(=O)NC2CCCCC2)cc1)c1cccnc1 | growth inhibition: inactive: -6.79%
COc1ccccc1C1(CC(=O)N2CCCCC2)CCOC(C(C)C)C1 (centres undefined) | growth inhibition: inactive: 14.4%

(next part)

Row | SMILES | growth inhibition
26 | CCc1cc(=O)oc2cc(OCC=C(C)C)ccc12 | inactive: 6.99%
27 | Clc1ccc2c(c1)C(N1CCNCC1)=Nc1ccccc1O2 | inactive: 0.31%
28 | O=C1c2ccccc2C(=O)C1c1ccccc1 | inactive: -20.8%
29 | C/C=C/Cn1c(SC)nc2c1c(=O)[nH]c(=O)n2C | inactive: -1.22%
30 | CC(C)C(=O)Nc1cccnc1 | inactive: -6.33%
31 | Clc1ccc(CCNc2ncnc3nc[nH]c23)cc1 | inactive: -4.31%
32 | CCOC(=O)c1cc2cc3ccccc3cc2[nH]1 | inactive: -7.16%
33 | COc1ccc(CNC(=O)C2CCN(C(=O)[C@@H](CC(C)C)NC(=O)OC(C)(C)C)CC2)cc1 | inactive: 7.36%
34 | CC(C)(CO)CNC(=O)CC1C(=O)NCCN1CC(c1ccccc1)c1ccccc1 (centres undefined) | inactive: 2.18%
35 | CCOc1ccc(C(=O)C(C)=O)c(OCC)c1 | inactive: 10.5%
36 | COc1ccc(CN(CCC(c2ccc(F)cc2)C2CCOC(C)(C)C2)C(=O)c2ccco2)cc1 (centres undefined) | inactive: -5.42%
37 | COc1ccc(CCCC(=O)O)c(C)c1 | inactive: 4.34%
38 | COCC1CCCN(Cc2cn[nH]c2-c2cc3ccccc3o2)C1 (centres undefined) | inactive: 4.05%
39 | CCOc1cc(C=O)ccc1OCCSc1ccc(C)cc1 | inactive: -2.97%
40 | O=C1OC(c2ccc(O)cc2)(c2ccc(O)cc2)c2ccccc21 | inactive: -0.13%
41 | C[C@]12CC[C@@H]3c4ccc(O)cc4[C@@H](O)C[C@H]3[C@@H]1CC[C@@H]2O | inactive: -2.59%
42 | C=C(CC)C(=O)c1ccc(OCC(=O)O)c(Cl)c1Cl | inactive: 6.24%
43 | CCC(C)NCCOc1ccc(C(C)(C)c2ccccc2)cc1 (centres undefined) | inactive: -1.83%
44 | Nc1ccc(S(=O)(=O)NC(=O)c2ccccc2)cc1 | inactive: -2.29%
45 | C[N+](C)(C)CCOP(=O)(O)OP(=O)([O-])OC[C@H]1O[C@@H](n2ccc(N)nc2=O)[C@H](O)[C@@H]1O | inactive: -19%
46 | COC(=O)c1ccccc1NC(=O)NCc1ccccc1 | inactive: -7.31%
47 | O=C(NCCc1ccccc1)C1CCN(C2CCN(Cc3ccco3)CC2)CC1 | inactive: 5.2%
48 | c1ccc2c(c1)CCCC2C1=NCCN1 (centres undefined) | inactive: -9.12%
49 | CCCCN1C[C@H](O)[C@@H](O)[C@H](O)[C@H]1CO | inactive: 7.58%
